{"source": "patent US20150190322A1", "about": "“COMPOSITION, METHOD AND KIT FOR ENHANCING HAIR” (PHARMA PATENT HOLDING INC., priority 2009, published 2015)", "origin": "cited, not measured here", "details": "observed with use as antihypertensive; reported in U.S. Pat. Nos. 4,139,619 and 4,968,812", "note": "At least one compound was matched to its structure with a doubt left.", "data": [{"compound": "Nc1cc(N2CCCCC2)nc(N)[n+]1[O-]", "note": "[Minoxidil, 6-(1-piferidinyl)-2,4-pyrimidane-diamine 3-oxide]", "values": [{"measurement": "hair growth and thickness", "result": "increase in hair growth and thickness"}]}]}
